Results from patent publication US20080221177A1, “4- PIRIDINYLMETHYLSULPHONAMIDE DERIVATIVE AS FUNGICIDAL PLANT PROTECTION AGENTS” (priority 2003, published 2008).
Some results were stated once for a whole list of compounds, not compound by compound.

system: Alternaria solani; assay: Activity against early blight of tomatoes caused by Alternaria solani; type: in vivo; settings: 250 ppm active compound; tomato plants cultivar Goldene Prinzessin sprayed to runoff, infected next day, assessed after 5 days; untreated plants 100% infected

Row | SMILES | infection (early blight, determined visually in %)
1 | CCON=C(C)c1ccc(S(=O)(=O)NCc2ccncc2)cc1 [I-2, 4-(1-ethoxyiminoethyl)-N-pyridin-4-ylmethylphenylsulfonamide] | no more than 30%
2 | C=CCON=C(C)c1ccc(S(=O)(=O)NCc2ccnc3ccccc23)cc1 [I-39] | no more than 30%
3 | CC(=NOC(C)C)c1ccc(S(=O)(=O)NCc2ccncc2)cc1 [I-4] | no more than 30%
4 | C=CCON=C(C)c1ccc(S(=O)(=O)NCc2ccncc2)cc1 [I-3] | no more than 30%
5 | Cc1ccc(S(=O)(=O)NCc2ccnc3ccccc23)cc1 [I-15] | no more than 30%
6 | O=S(=O)(NCc1ccnc2ccccc12)c1ccc(OC(F)(F)F)cc1 [I-33] | no more than 30%
7 | CC(=NOC(C)C)c1ccc(S(=O)(=O)NCc2ccnc3ccccc23)cc1 [I-38] | no more than 30%
8 | O=S(=O)(NCc1ccnc2ccccc12)c1ccc(OC(F)(F)C(F)F)cc1 [I-34] | no more than 30%
9 | COC(=O)c1ccc(S(=O)(=O)NCc2ccnc3ccccc23)cc1 [I-14] | no more than 30%
10 | CC(=NOCc1ccccc1)c1ccc(S(=O)(=O)NCc2ccnc3ccccc23)cc1 [I-42] | no more than 30%
11 | CCCCCCON=C(C)c1ccc(S(=O)(=O)NCc2ccnc3ccccc23)cc1 [I-41] | no more than 30%
12 | CCON=C(C)c1ccc(S(=O)(=O)NCc2ccnc3ccccc23)cc1 [I-37] | no more than 30%
13 | O=S(=O)(NCc1ccnc2ccccc12)c1ccccc1 [I-30] | no more than 30%
14 | CC(C)c1ccc(S(=O)(=O)NCc2ccnc3ccccc23)cc1 [I-32] | no more than 30%
15 | CON=C(C)c1ccc(S(=O)(=O)NCc2ccnc3ccccc23)cc1 [I-36] | no more than 30%
16 | C#CCON=C(C)c1ccc(S(=O)(=O)NCc2ccnc3ccccc23)cc1 [I-40] | no more than 30%
17 | O=S(=O)(NCc1ccnc2ccccc12)c1ccc(Cl)cc1 [I-17] | no more than 30%
18 | CC(C)(C)c1ccc(S(=O)(=O)NCc2ccnc3ccccc23)cc1 [I-31] | no more than 30%
19 | CCCCCCON=C(C)c1ccc(S(=O)(=O)NCc2ccncc2)cc1 [I-6] | no more than 30%
20 | C#CCON=C(C)c1ccc(S(=O)(=O)NCc2ccncc2)cc1 [I-5] | no more than 30%

system: Sphaerotheca fuliginea; assay: Activity against mildew on cucumber leaves caused by Sphaerotheca fuliginea, protective application; type: in vivo; settings: 250 ppm active compound; cucumber seedlings cultivar Chinese Snake, protective spray, inoculated 20 hours later, assessed after 7 days; untreated plants 100% infected

Row | SMILES | infection of the cotyledon area (mildew development, determined visually in %)
21 | CCON=C(C)c1ccc(S(=O)(=O)NCc2ccncc2)cc1 [I-2, 4-(1-ethoxyiminoethyl)-N-pyridin-4-ylmethylphenylsulfonamide] | no more than 30%
22 | C=CCON=C(C)c1ccc(S(=O)(=O)NCc2ccnc3ccccc23)cc1 [I-39] | no more than 30%
23 | CC(=NOC(C)C)c1ccc(S(=O)(=O)NCc2ccncc2)cc1 [I-4] | no more than 30%
24 | C=CCON=C(C)c1ccc(S(=O)(=O)NCc2ccncc2)cc1 [I-3] | no more than 30%
25 | Cc1ccc(S(=O)(=O)NCc2ccnc3ccccc23)cc1 [I-15] | no more than 30%
26 | O=S(=O)(NCc1ccnc2ccccc12)c1ccc(OC(F)(F)F)cc1 [I-33] | no more than 30%
27 | CC(=NOC(C)C)c1ccc(S(=O)(=O)NCc2ccnc3ccccc23)cc1 [I-38] | no more than 30%
28 | CON=C(C)c1ccc(S(=O)(=O)NCc2ccncc2)cc1 [I-1] | no more than 30%
29 | O=S(=O)(NCc1ccnc2ccccc12)c1ccc(OC(F)(F)C(F)F)cc1 [I-34] | no more than 30%
30 | CC(=NOCc1ccccc1)c1ccc(S(=O)(=O)NCc2ccnc3ccccc23)cc1 [I-42] | no more than 30%
31 | CCON=C(C)c1ccc(S(=O)(=O)NCc2ccnc3ccccc23)cc1 [I-37] | no more than 30%
32 | O=S(=O)(NCc1ccnc2ccccc12)c1ccccc1 [I-30] | no more than 30%
33 | CC(C)c1ccc(S(=O)(=O)NCc2ccnc3ccccc23)cc1 [I-32] | no more than 30%
34 | C#CCON=C(C)c1ccc(S(=O)(=O)NCc2ccnc3ccccc23)cc1 [I-40] | no more than 30%
35 | C#CCON=C(C)c1ccc(S(=O)(=O)NCc2ccncc2)cc1 [I-5] | no more than 30%
36 | O=S(=O)(NCc1ccnc2ccccc12)c1cc(Cl)ccc1Cl [I-18] | no more than 30%
